Drawing on PMC5833736, this text covers binding for one substance.

Sequences of proteins named here, by UniProt entry; tags and fusion partners are left off.
UniProt P42224: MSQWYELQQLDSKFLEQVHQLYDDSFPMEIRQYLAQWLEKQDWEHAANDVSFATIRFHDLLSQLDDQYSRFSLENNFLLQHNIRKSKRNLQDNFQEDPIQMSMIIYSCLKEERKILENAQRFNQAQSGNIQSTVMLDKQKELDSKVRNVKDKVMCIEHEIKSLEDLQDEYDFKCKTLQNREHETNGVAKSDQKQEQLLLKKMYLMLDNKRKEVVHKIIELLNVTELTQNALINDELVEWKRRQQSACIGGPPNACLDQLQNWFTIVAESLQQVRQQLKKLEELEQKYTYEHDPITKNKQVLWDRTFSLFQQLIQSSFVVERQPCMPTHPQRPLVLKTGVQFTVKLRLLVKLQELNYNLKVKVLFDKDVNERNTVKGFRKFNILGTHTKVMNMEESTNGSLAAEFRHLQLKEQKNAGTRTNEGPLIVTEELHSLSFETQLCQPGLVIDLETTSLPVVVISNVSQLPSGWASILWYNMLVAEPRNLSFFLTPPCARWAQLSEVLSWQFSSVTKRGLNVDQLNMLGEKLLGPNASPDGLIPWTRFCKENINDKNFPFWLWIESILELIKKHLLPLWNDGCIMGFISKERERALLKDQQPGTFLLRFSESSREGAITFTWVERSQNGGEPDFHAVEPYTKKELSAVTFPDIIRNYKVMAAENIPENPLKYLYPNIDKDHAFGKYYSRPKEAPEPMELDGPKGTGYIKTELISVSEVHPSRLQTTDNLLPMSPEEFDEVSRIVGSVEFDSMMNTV

These are yes or no findings as the source states them, for the method shown. Binding seen in cells or lysates may run through a third protein. Some binding calls cover weakened binding; strength is not graded here. Tags and fused reporters may be left off the sequences shown.

This assay deals with T1, promyelocytic leukemia zinc-finger protein (PLZF), Flag-tagged (human) (UniProt Q05516).
T1 sequence: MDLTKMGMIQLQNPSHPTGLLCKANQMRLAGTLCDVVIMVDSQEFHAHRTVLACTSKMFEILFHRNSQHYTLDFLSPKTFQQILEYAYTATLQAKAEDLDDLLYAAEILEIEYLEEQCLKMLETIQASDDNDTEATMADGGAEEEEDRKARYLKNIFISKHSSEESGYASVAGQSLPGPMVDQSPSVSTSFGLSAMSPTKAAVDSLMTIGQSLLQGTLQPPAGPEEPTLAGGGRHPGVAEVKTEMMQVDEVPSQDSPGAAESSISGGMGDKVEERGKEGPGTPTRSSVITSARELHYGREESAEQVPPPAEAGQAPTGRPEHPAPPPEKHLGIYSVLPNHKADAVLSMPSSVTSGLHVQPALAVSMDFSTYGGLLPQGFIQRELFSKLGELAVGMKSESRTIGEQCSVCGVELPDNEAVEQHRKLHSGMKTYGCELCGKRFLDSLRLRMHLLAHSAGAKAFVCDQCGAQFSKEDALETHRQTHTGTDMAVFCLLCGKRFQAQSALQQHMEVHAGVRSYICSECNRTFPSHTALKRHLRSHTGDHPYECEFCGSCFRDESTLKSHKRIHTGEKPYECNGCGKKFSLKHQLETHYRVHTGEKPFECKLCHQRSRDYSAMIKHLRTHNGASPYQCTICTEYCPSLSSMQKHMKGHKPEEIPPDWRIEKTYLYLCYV
Put plainly: co-IP; HEK-293T cells transiently transfected with STAT1 and PLZF-Flag plasmids, lysed 48 h after transfection in IP lysis buffer with protease inhibitor cocktail and PMSF; precipitation with Flag beads (Sigma-Aldrich M8823), western blot.

For STAT1 (from UniProt P42224 1-750), the binding entry is “binds”.
